PubChem BioAssay AID540276 (National Center for Advancing Translational Sciences (NCATS), 2011)
Out of some 300,000 compounds screened, about 5,400 (1.8%) were called active. Inconclusive results, whose numbers are uncertain, are shown with a selection of clear calls. Calls follow the shape of the full dose curve; tested in HEK293 cells. Potencies beside an inconclusive call are fits to weak or partial responses and may not hold up.

test: qHTS for inhibitors of binding or entry into cells for Marburg Virus; details: Marburg virus pseudotyped entry inhibition, cell reporter; activity change, negative = inhibition: at 37.8 µM (top of the series) unless noted
% is scaled to controls: 0 for no effect and ±100 for the full control effect; potency is read from the fitted curve at half-maximal effect.

Compound	Potency	activity change, negative = inhibition
CCN1CCN(Cc2cccnc2)CC1	inconclusive: 3.16 µM [inhibitor, single point]	–
O=C(C1COc2ccccc2O1)N1CCCC1 (stereo unspecified)	–	inactive: 4.3%
COc1ccccc1NC(=O)/C(=C/c1cccc([N+](=O)[O-])c1)c1ccccc1	inconclusive: 11.2 µM [inhibitor, partial curve, poor fit]	–
O=C(Nc1cccc2ccccc12)/C(Cl)=C/c1ccccc1	–	inactive: -14.5%
Cc1cccc(C(=O)Nc2ccc(S(=O)(=O)N(Cc3ccccc3)c3ccccc3)cc2)c1	inconclusive: 8.91 µM [inhibitor, partial curve, poor fit]	–
CCCC/C(O)=C1\C(=O)CCCC1=NCCc1c(C)[nH]c2ccc(OC)cc12	active: 8.91 µM	–
Cc1ccc(-n2c(/C=C/c3ccc4c(c3)OCO4)nc3ccccc3c2=O)cc1	inconclusive: 0.517 µM [activator, full curve, poor fit]	–
CN(Cc1cccc(F)c1)C(=O)c1ccc2c(=O)n3c(nc2c1)CCC3	–	inactive: 13.7% [at 46.1 µM]
O=C(Nc1nnc(SCC(=O)N2CCCc3ccccc32)s1)c1ccccc1	inconclusive: 35.5 µM [inhibitor, single point]	–
Cc1cccc(C(=O)NCC(C)NC(=O)c2cccc(C)c2)c1 (stereo unspecified)	inconclusive: 35.5 µM [inhibitor, single point]	–
Oc1c(Br)cccc1/C=N/c1ncn[nH]1	inconclusive: 7.08 µM [activator, partial curve, poor fit]	–
Cc1ccc(S(=O)(=O)N2CCN(CCNC(=O)C(=O)NCc3ccccc3)CC2)cc1	–	inactive: 4.38% [at 46.1 µM]
OC1(c2ccc(F)cc2)CCN(Cc2ccccc2)C1 (stereo unspecified)	inconclusive: 5.17 µM [inhibitor, partial curve]	–
Cc1cc(NC(=O)NC(=O)c2ccccc2NC(=O)CN(C)C)ccc1Oc1ncc(Br)cn1	inconclusive: 7.94 µM [inhibitor, partial curve]	–
Cn1c(SCc2cccc(F)c2)nnc1-c1cnccn1	inconclusive: 1.26 µM [inhibitor, single point]	–
CCOc1ccc(Br)cc1S(=O)(=O)Nc1ccc(S(=O)(=O)Nc2cc(C)on2)cc1	inconclusive: 1.26 µM [inhibitor, partial curve, poor fit]	–
CCOC(=O)C1=C(C)OC(N)=C(C(=O)OCC)C12C(=O)Nc1ccc(Br)cc12 (stereo unspecified)	inconclusive: 11.2 µM [inhibitor, partial curve, poor fit]	–
CCc1cc2c(COC(=O)CCNS(=O)(=O)c3cccc(C(F)(F)F)c3)cc(=O)oc2cc1O	inconclusive: 10 µM [inhibitor, partial curve, poor fit]	–
C(=N\Nc1ccccc1)/c1ccc(N2CCOCC2)cc1	–	inactive: -1.04%
COc1ccc(C(=O)NCCn2cc(SC(C)c3ccccc3)c3ccccc32)cc1OC (stereo unspecified)	inconclusive: 22.4 µM [inhibitor, single point]	–
O=C(Nc1cccc(Cl)c1)Nc1ccc2c(c1)OCO2	inconclusive: 23.1 µM [inhibitor, partial curve, poor fit]	–

Compound	Potency	activity change, negative = inhibition
COc1ccc(NC(=O)Nc2ncccc2C)cc1	–	inactive: 3.86%
Cc1onc(COc2ccccc2O)c1Br	inconclusive: 35.5 µM [activator, single point]	–
C#CCOc1ccc(/C=C2\SC(=S)N(Cc3cccnc3)C2=O)cc1	inconclusive: 2.82 µM [inhibitor, partial curve, poor fit]	–
Cn1c(SCC(=O)NCc2ccccc2)nnc1-c1ccc(NC(=O)CCc2ccccc2)cc1	inconclusive: 3.16 µM [inhibitor, partial curve, poor fit]	–
Cc1ccc(NC(=O)CSc2nc(NS(=O)(=O)c3ccc(C)cc3)cc(=O)[nH]2)cc1	inconclusive: 8.2 µM [inhibitor, partial curve, poor fit]	–
Cc1ccc(C(=O)Nc2ccc(CN3CCCCC3)cc2)c(C)c1	–	inactive: -23.5% [at 46.1 µM]
Cc1c(Cl)cccc1NC(=S)N(C)CCC#N	inconclusive: 10 µM [activator, partial curve, poor fit]	–
CCN(CC)CC(C)(C)COC(=O)c1oc2ccccc2c1C	–	inactive: -19.4% [at 46.1 µM]
COCCN(C(=O)COC(=O)C1(C)CC1(Cl)Cl)c1c(N)n(Cc2ccccc2)c(=O)[nH]c1=O (stereo unspecified)	inconclusive: 0.355 µM [inhibitor, full curve, poor fit]	–
CC(C)(CNC(=O)CCNC(=O)c1ccc(Br)cc1)N1CCOCC1	inconclusive: 0.562 µM [inhibitor, full curve, poor fit]	–
Cc1cccc(NC(=O)C2CCCN(S(=O)(=O)c3ccc(Br)s3)C2)c1 (stereo unspecified)	inconclusive: 35.5 µM [inhibitor, partial curve, poor fit]	–
CCOC(=O)c1sc2nc(SCC(=O)N(CC)CC)n(CCCN3CCCC3=O)c(=O)c2c1C	–	inactive: -15.2% [at 46.1 µM]
CC(O/N=C/c1ccc(OC(F)F)cc1)C(=O)Nc1cccc(S(=O)(=O)N2CCOCC2)c1 (stereo unspecified)	inconclusive: 35.5 µM [inhibitor, single point]	–
CCc1ccc(NC(=O)CCc2nnc3n(C)c(=O)c4sccc4n23)cc1	inconclusive: 1.26 µM [inhibitor, partial curve, poor fit]	–
CCCCN(C(=O)c1cnccn1)c1c(N)n(CCC)c(=O)[nH]c1=O	–	inactive: 5.36% [at 46.1 µM]
Cc1ccc(C(C(=O)NC2CCCC2)N(C(=O)CCC(=O)Nc2cc(C)on2)c2ccccc2)cc1 (stereo unspecified)	inconclusive: 0.562 µM [inhibitor, full curve, poor fit]	–
O=c1[nH]c2ccc(NS(=O)(=O)c3ccc([N+](=O)[O-])cc3)cc2[nH]1	inconclusive: 6.31 µM [activator, single point]	–
Cc1ccc(NC(=O)c2ccc3snnc3c2)cc1	inconclusive: 0.562 µM [activator, full curve, poor fit]	–
COC(=O)c1c(NC(=S)NN2CCN(C)CC2)sc2c1CCC(C)C2 (stereo unspecified)	inconclusive: 6.31 µM [inhibitor, single point]	–
COC(=O)c1cc2oc3ccccc3c2n1Cc1c(C)cc(C)cc1C	inconclusive: 35.5 µM [activator, single point]	–

Whole records, looked up by structure. Values in the order: Potency	activity change, negative = inhibition
`Cc1ccc(NC(=O)c2ccc3snnc3c2)cc1` as listed: inconclusive: 0.562 µM [activator, full curve, poor fit]	–
`Cc1cccc(NC(=O)C2CCCN(S(=O)(=O)c3ccc(Br)s3)C2)c1` (stereo unspecified) as listed: inconclusive: 35.5 µM [inhibitor, partial curve, poor fit]	–
